Data source: PubChem BioAssay AID1508597 (Cure First, 2020)

Purpose: 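Genes whose silencing sensitises or protects ovarian cancer cells against rucaparib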 (primary screen)
Cells: human ovarian carcinoma lines grown from tumours: OCI-P5x (papillary serous) and OCI-C5x (clear cell)
Reagent: siRNA pool against human genes, 1.25 pmol siRNA per well
Duration: 72 h or 96 h, depending on the cell culture
Challenge: rucaparib 20 µM (about IC30) or vehicle, present until read-out
Rucaparib or vehicle: Vehicle
Cell line: OCI-C5x (clear cell)
Measurement: 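Luminescent ATP-based viability assay read 72 or 96 h after transfection, depending on culture, given as normalised percent viability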
Direction: viability, normalised: higher = more viable cells remaining
Active means: 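a well counts as a hit if its normalised viability is under 80 percent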
Meaning of the calls: active = viability under 80%; inactive = viability 80% or more
Shown is an unselected part of the about 2,100 reagents, in one setting of the screen. 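Calls flag viability under 80% in either arm, not effects specific to rucaparib; the reference for percent is not stated.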 Entries without a mark were called inactive. Some reagents were tested in more than one well and are listed for each. Not stated in the record: the 100% reference.

| Gene | technical replicate | viability, normalised (%) |
| --- | --- | --- |
| EPHA3 | 1 | 61.7 (active) |
| EPHA3 | 2 | 58.6 (active) |
| EPHA3 | 3 | 41.4 (active) |
| BTK | 1 | 62.1 (active) |
| BTK | 1 | 71.3 (active) |
| BTK | 2 | 72.4 (active) |
| BTK | 2 | 68.5 (active) |
| BTK | 3 | 55.6 (active) |
| BTK | 3 | 58.1 (active) |
| STRADA | 1 | 79.2 (active) |
| STRADA | 2 | 55.8 (active) |
| STRADA | 3 | 50 (active) |
| RAG2 | 1 | 37.3 (active) |
| RAG2 | 2 | 28.9 (active) |
| RAG2 | 3 | 36.6 (active) |
| ID4 | 1 | 41 (active) |
| ID4 | 2 | 46.7 (active) |
| ID4 | 3 | 29.4 (active) |
| MAP4K5 | 1 | 91.1 |
| MAP4K5 | 2 | 52.5 (active) |
| MAP4K5 | 3 | 45.9 (active) |
| MAP3K8 | 1 | 55.5 (active) |
| MAP3K8 | 2 | 50.5 (active) |
| MAP3K8 | 3 | 52 (active) |

A few values from the entries so far.
Under “viability, normalised (%)”, EPHA3, technical replicate 1 reads 61.7 (active)
ID4, technical replicate 2, viability, normalised (%) → 46.7 (active)
MAP4K5, technical replicate 3, viability, normalised (%) → 45.9 (active)
Under “viability, normalised (%)”, STRADA, technical replicate 3 reads 50 (active)
